Some results were stated once for a whole list of compounds, not compound by compound.
What was measured:
[1] = test system: adult Ctenocephalides felis fleas; test: Ingestion activity (flea membrane feeding, blood feeding) against adult Ctenocephalides felis; settings: bovine blood, 24h post treatment
Description: Example 6: Screening Method to Test Ingestion Activity of Compounds of Formula (I) Against Adult Ctenocephalides felis
The four structurally closest prior art compounds (A), (B), (C) and (D) specifically excluded from the scope of formula (I) were characterized vis-a-vis selected compounds of formula (I) with regard to their potency in in vitro screening assays against fleas (Ctenocehalides felis) and ticks (Rhipicephalus sanguineus).
It is important to note that compounds that show better activity versus ticks are more desirable in the animal health field, as ticks are more difficult to control than fleas. Noteworthy, in particular with regard to fleas the illustrated comparative data are based on a flea membrane feeding (ingestion, blood feeding) assay. Data from this assay are more relevant for compounds intended to be delivered systemically to an animal via oral or injectable routes. Membrane feeding assays differ to primary screening laboratory contact assays in that the latter only measure the effect of the direct contact of selected compounds on the parasite, such as the flea or the tick. The information derived from laboratory contact assays is strictly limited to the ability of the compound to be absorbed through the parasite surface and to reach its molecular target, and no information can be gleaned from these contact assays as to whether the compound would also be active when presented orally to the ectoparasite itself in a blood meal, such as with the membrane feeding assay, and certainly not when administered orally to an animal host (e.g. “in vivo”) with subsequent exposure to the ectoparasite.
However, as explained above, spectrum of action against this range of species (i.e. fleas and ticks) is a desirable property of ectoparasiticides for veterinary use. In the following table 1 comparative experimental data of the in vitro assays are shown regarding flea membrane feeding (ingestion, blood feeding) activity against Ctenocephalides felis and contact activity against Rhipicephalus sanguineus.

[2] = test system: Laodelphax striatellus 3rd-instar nymphs; test: Insecticidal test on Laodelphax striatellus (rice seedling dip); settings: 500 ppm, 8 days after inoculation
Method: Example 13: Insecticidal Test on Laodelphax striatellus
(§1) The compounds of formula (I) of the present invention or salts thereof were separately dispersed in water and diluted to 500 ppm. Rice plant seedlings were dipped in the dispersion for about 30 seconds. After air dried, the seedlings were put into a separate glass test tube and inoculated with ten 3rd-instar nymphs of Laodelphax striatellus and then the glass test tube was kept in a room at 25° C. 8 days after the inoculation, the numbers of the dead and alive insects were counted. The corrected mortality rate was calculated according to the following formula and the insecticidal activity was evaluated according to the following criteria. Corrected mortality rate (%)=100×(Survival rate in an untreated plot−Survival rate in a treated plot)/Survival rate in an untreated plot • A: the corrected mortality rate is 100% • B: the corrected mortality rate is 90 to 99% • C: the corrected mortality rate is 80 to 89% • D: the corrected mortality rate is 50 to 79%

[3] = test system: Spodoptera litura 2nd-instar larvae; test: Insecticidal test on Spodoptera litura (cabbage leaf dip); settings: 500 ppm, 8 days after inoculation
Method: Example 11: Insecticidal Test on Spodoptera litura
The compounds of formula (I) of the present invention or salts thereof were separately dispersed in water and diluted to 500 ppm. Cabbage leaves were dipped in the dispersion for about 30 seconds. After air dried, the leaves were placed in a plastic Petri dish with a diameter of 9 cm and inoculated with ten 2nd-instar larvae of Spodoptera litura, after which the dish was closed and then allowed to stand in a room at 25° C. 8 days after the inoculation, the numbers of the dead and alive insects were counted. The corrected mortality rate was calculated according to the following formula and the insecticidal activity was evaluated according to the following criteria. Corrected mortality rate (%)=100×(Survival rate in an untreated plot−Survival rate in a treated plot)/Survival rate in an untreated plot • A: the corrected mortality rate is 100% • B: the corrected mortality rate is 90 to 99% • C: the corrected mortality rate is 80 to 89% • D: the corrected mortality rate is 50 to 79%

[4] = test system: adult Ctenocephalides felis fleas; test: Contact activity against adult Ctenocephalides felis (treated surface, motility by machine vision, 24 h)
Description: Example 7: Screening Method to Test Contact Activity of Compounds of Formula (I) Against Adult Ctenocephalides felis

[5] = test system: Plutella xylostella; test: Insecticidal test on Plutella xylostella (Chinese cabbage seedling dip); settings: 500 ppm, 6 days after dip treatment
Method: Example 12: Insecticidal Test on Plutella xylostella
as §1, with “ppm. Ten adults of Plutella xylostella were released onto Chinese cabbage” for “ppm. Rice plant”, “seedlings and allowed to lay eggs thereon. 2 days after the release of the adults, the seedling was” for “seedlings were”, “the seedling” for “the seedlings were put into a separate glass test tube and inoculated with ten 3rd-instar nymphs of Laodelphax striatellus and then the glass test tube”, “C. 6” for “C. 8”, “the dip treatment,” for “the inoculation,”

[6] = test system: Aedes aegypti L1 larvae; test: Activity against larvae of Aedes aegypti (L1 larvae, 384-well, image-based mortality); settings: 48 h at 27° C., read-out: EC50 (percentage of mortality, A. aegypti L1 larvae)
Method: Example 3: Screening Method to Test Activity of Compounds of Formula (I) Against Larvae of Aedes aegypti
Eight A. aegypti L1 larvae in a total volume of 64 μL water were added to 384-well microplates containing compounds formulated in 100% DMSO. The plates were incubated for 48 h at 27° C. Individual well images were acquired and analyzed using a pipeline to quantitatively assess the amount of larvae biomass accumulating at the bottom of the well. The efficacy of a compound at a given dose is expressed as “percentage of mortality” and determined by comparison to average biomass descriptors of positive and negative control wells containing 1.0 μM Fipronil or DMSO only, respectively. Dose response assay were conducted to determine an EC50 value.

[7] = test system: Myzus persicae; test: Insecticidal test on Myzus persicae (foliar application on potted Chinese cabbage); settings: 500 ppm, 6 days after application
Description: Example 14: Insecticidal Test on Myzus persicae
The compounds of formula (I) of the present invention or salts thereof were separately dispersed in water and diluted to 500 ppm. Chinese cabbage plants were planted in plastic pots (diameter: 8 cm, height: 8 cm). Aphids (Myzus persicae) were propagated on the plants and then the number of surviving aphids was counted. The dispersion was applied to the foliage of the potted plants. After the plants were air dried, these were kept in a greenhouse. 6 days after the application, the number of the alive insects was counted on the plants. The control rate was calculated according to the following formula and the control efficacy was evaluated according to the following criteria. Control rate (%)=100−{(T×Ca)/(Ta×C)}×100 • Ta: the number of alive insects before the foliar application in a treated plot • T: the number of alive insects after the foliar application in a treated plot • Ca: the number of alive insects before the foliar application in an untreated plot • C: the number of alive insects after the foliar application in an untreated plot • A: the control rate is 100% • B: the control rate is 90 to 99% • C: the control rate is 80 to 89% • D: the control rate is 50 to 79%

With “1-[4-[5-(ethylsulfonyl)-6-[[6-trifluoromethyl-triazolo[1,5-a]pyridine-2-yl]pyridine]pyridin-3-yl]phenyl]cyclopropane-1-carbonitrile [Compound 2]” the “EC80 (% motility reduction, adult C. felis, ingestion via membrane feeding)” value [1] was “less than 1 μM”, the “activity level (corrected mortality rate), Laodelphax striatellus” value [2] was “A (the corrected mortality rate is 100%)” and the “activity level (corrected mortality rate), Spodoptera litura” value [3] was “A (the corrected mortality rate is 100%)”. For the same substance, the “EC80 (% motility reduction, adult C. felis, contact)” value [4] was “less than 1 μM”, the “activity level (corrected mortality rate), Plutella xylostella” value [5] was “A (the corrected mortality rate is 100%)” and the EC50 [6] was under 40 nM. The “control efficacy level (control rate), Myzus persicae” value [7] was “A (the control rate is 100%)”.
